# Measured values as given in the supplement of paper PMC8728848.
# Some of the results follow.
# B1: PX14379D-pdi-530-26-530 (Parabacteroides distasonis) (protein)
# chain: DETVYDKLPADDFGQSTAELNALIGNSHNTMKKFWTEYMHLSECSGSMAVTPTRRGGDWYDGGQYREIYMHTWTSQTSRVKSAWKAATEAIGTCNEAIRKLQNSEILTEEEKAQDVADLRGVRAFWIYVMMDYWGNIPLLTEFHPTDKVFPGNSSRQEVFDWLIQEVEEIKDICPPATTENYGSFTQGAAYSLLAKLYLNAEAWGVTFSGNAYQKVIDNCDKVMAMGYILEPNWKDNFSVTNENSKEAILAATFSSSDTGNDGNVKNELHNNTLHYKDYLSLGITASGTWNGICAQPEYVRLFDEEDARLDGTFLTGLMIDKSTGKPIMTDHNNELNHTIDVNMIPGMEYDGTNWSAVEQHDGARCFKWEFASDLTSSMGNDFHIFRLADIYLMKAEALLRGGGSVSEATALVNTIRERGYGNSDHNYATVTLKEVQLERRLELAWEVYSRQDDIRFGCFTTGMWPQSNCERKADDYLKLLPVSQDAWQVNPNLKQNPGYAAFSK
# How the values were obtained:
# Experiment in all cases: glycan array binding signal (z-score within array); higher = stronger binding
# Conditions in all cases: glycan notation: IUPAC condensed, linker removed
# Gal(a1-3)Gal(b1-3)GlcNAc = target: Gal(a1-3)Gal(b1-3)GlcNAc
# Outline: (§1)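 Glycan array data were curated from 3228 arrays in the Consortium for Functional Glycomics database and kept only where the protein sequence was available. Glycan names were converted to IUPAC-condensed notation, and columns mapping to the same glycan were averaged. The binding signal is a within-array Z-score, averaged across arrays of the same protein sequence at different concentrations or buffers and across linkers. Negative Z-scores can be read as non-binding.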
# [1] = target: Gal(a1-3)Gal(b1-3)GlcNAc(b1-2)Man
# Outline: as §1
# [2] = target: Gal(a1-3)Gal(b1-3)GlcNAc(b1-2)Man(a1-3)[Gal(a1-3)Gal(b1-3)GlcNAc(b1-2)Man(a1-6)]Man(b1-4)GlcNAc(b1-4)GlcNAc
# Outline: as §1
# [3] = target: Gal(a1-3)Gal(b1-3)GlcNAc(b1-3)GalNAc
# Outline: as §1
# [4] = target: Gal(a1-3)Gal(b1-3)GlcNAc(b1-6)GalNAc
# Outline: as §1
# [5] = target: Gal(a1-3)Gal(b1-3)[Fuc(a1-4)]GlcNAc(b1-2)Man(a1-3)[Gal(a1-3)Gal(b1-3)[Fuc(a1-4)]GlcNAc(b1-2)Man(a1-6)]Man(b1-4)GlcNAc(b1-4)GlcNAc
# Outline: as §1
# Gal(a1-3)Gal(b1-4)Glc = target: Gal(a1-3)Gal(b1-4)Glc
# Outline: as §1
# Gal(a1-3)Gal(b1-4)GlcNAc = target: Gal(a1-3)Gal(b1-4)GlcNAc
# Outline: as §1
# [6] = target: Gal(a1-3)Gal(b1-4)GlcNAc(b1-2)Man
# Outline: as §1
# [7] = target: Gal(a1-3)Gal(b1-4)GlcNAc(b1-2)Man(a1-3)[Gal(a1-3)Gal(b1-4)GlcNAc(b1-2)Man(a1-6)]Man(b1-4)GlcNAc(b1-4)GlcNAc
# Outline: as §1
# [8] = target: Gal(a1-3)Gal(b1-4)GlcNAc(b1-3)GalNAc
# Outline: as §1
# [9] = target: Gal(a1-3)Gal(b1-4)GlcNAc(b1-6)GalNAc
# Outline: as §1
# [10] = target: Gal(a1-3)Gal(b1-4)[Fuc(a1-3)]GlcNAc
# Outline: as §1
# [11] = target: Gal(a1-3)Gal(b1-4)[Fuc(a1-3)]GlcNAc(b1-2)Man(a1-3)[Gal(a1-3)Gal(b1-4)[Fuc(a1-3)]GlcNAc(b1-2)Man(a1-6)]Man(b1-4)GlcNAc(b1-4)GlcNAc
# Outline: as §1
# Gal(a1-3)GalNAc = target: Gal(a1-3)GalNAc
# Outline: as §1
# [12] = target: Gal(a1-3)[Gal(a1-4)]Gal(b1-4)GlcNAc
# Outline: as §1
# [13] = target: Gal(a1-4)Gal(b1-3)GlcNAc(b1-2)Man(a1-3)[Gal(a1-4)Gal(b1-3)GlcNAc(b1-2)Man(a1-6)]Man(b1-4)GlcNAc(b1-4)GlcNAc
# Outline: as §1
# Gal(a1-4)Gal(b1-4)Glc = target: Gal(a1-4)Gal(b1-4)Glc
# Outline: as §1
# Gal(a1-4)Gal(b1-4)GlcNAc = target: Gal(a1-4)Gal(b1-4)GlcNAc
# Outline: as §1
# [14] = target: Gal(a1-4)Gal(b1-4)GlcNAc(b1-2)Man(a1-3)[Gal(a1-4)Gal(b1-4)GlcNAc(b1-2)Man(a1-6)]Man(b1-4)GlcNAc(b1-4)GlcNAc
# Outline: as §1
# [15] = target: Gal(a1-4)Gal(b1-4)GlcNAc(b1-3)Gal(b1-4)Glc
# Outline: as §1
# Gal(a1-4)GlcNAc = target: Gal(a1-4)GlcNAc
# Outline: as §1
# Gal(a1-6)Glc = target: Gal(a1-6)Glc
# Outline: as §1
# Gal(b1-2)Gal = target: Gal(b1-2)Gal
# Outline: as §1
# Gal(b1-3)Gal = target: Gal(b1-3)Gal
# Outline: as §1
# Gal(b1-3)Gal(b1-4)GlcNAc = target: Gal(b1-3)Gal(b1-4)GlcNAc
# Outline: as §1
# Gal(b1-3)GalNAc = target: Gal(b1-3)GalNAc
# Outline: as §1
# [16] = target: Gal(b1-3)GalNAc(a1-3)[Fuc(a1-2)]Gal(b1-4)Glc
# Outline: as §1
# [17] = target: Gal(b1-3)GalNAc(a1-3)[Fuc(a1-2)]Gal(b1-4)GlcNAc
# Outline: as §1
# Gal(b1-3)GalNAc(b1-3)Gal = target: Gal(b1-3)GalNAc(b1-3)Gal
# Outline: as §1
# [18] = target: Gal(b1-3)GalNAc(b1-3)Gal(a1-4)Gal(b1-4)Glc
# Outline: as §1
# [19] = target: Gal(b1-3)GalNAc(b1-4)Gal(b1-4)Glc
# Outline: as §1
# [20] = target: Gal(b1-3)GalNAc(b1-4)[Neu5Ac(a2-3)]Gal(b1-4)Glc
# Outline: as §1
# Gal(b1-3)GlcNAc = target: Gal(b1-3)GlcNAc
# Outline: as §1
# [21] = target: Gal(b1-3)GlcNAc(a1-3)Gal(b1-4)GlcNAc
# Outline: as §1
# [22] = target: Gal(b1-3)GlcNAc(a1-6)Gal(b1-4)GlcNAc
# Outline: as §1
# Gal(b1-3)GlcNAc(b1-2)Man = target: Gal(b1-3)GlcNAc(b1-2)Man
# Outline: as §1
# [23] = target: Gal(b1-3)GlcNAc(b1-2)Man(a1-3)[Gal(b1-3)GlcNAc(b1-2)Man(a1-6)]Man(b1-4)GlcNAc(b1-4)GlcNAc
# Outline: as §1
binder,measurement,setting,value
B1,glycan array binding signal (z-score),Gal(a1-3)Gal(b1-3)GlcNAc,-0.681
same,glycan array binding signal (z-score),[1],-0.354
same,glycan array binding signal (z-score),[2],1.73
same,glycan array binding signal (z-score),[3],-0.798
same,glycan array binding signal (z-score),[4],-0.581
same,glycan array binding signal (z-score),[5],2.48
same,glycan array binding signal (z-score),Gal(a1-3)Gal(b1-4)Glc,-0.838
same,glycan array binding signal (z-score),Gal(a1-3)Gal(b1-4)GlcNAc,1.1
same,glycan array binding signal (z-score),[6],-0.227
same,glycan array binding signal (z-score),[7],1.1
same,glycan array binding signal (z-score),[8],-0.333
same,glycan array binding signal (z-score),[9],-0.109
same,glycan array binding signal (z-score),[10],-1.3
same,glycan array binding signal (z-score),[11],0.036
same,glycan array binding signal (z-score),Gal(a1-3)GalNAc,-0.171
same,glycan array binding signal (z-score),[12],4.67
same,glycan array binding signal (z-score),[13],1.05
same,glycan array binding signal (z-score),Gal(a1-4)Gal(b1-4)Glc,1.1
same,glycan array binding signal (z-score),Gal(a1-4)Gal(b1-4)GlcNAc,0.793
same,glycan array binding signal (z-score),[14],0.97
same,glycan array binding signal (z-score),[15],-0.544
same,glycan array binding signal (z-score),Gal(a1-4)GlcNAc,0.348
same,glycan array binding signal (z-score),Gal(a1-6)Glc,0.995
same,glycan array binding signal (z-score),Gal(b1-2)Gal,-1.23
same,glycan array binding signal (z-score),Gal(b1-3)Gal,-0.435
same,glycan array binding signal (z-score),Gal(b1-3)Gal(b1-4)GlcNAc,0.29
same,glycan array binding signal (z-score),Gal(b1-3)GalNAc,0.214
same,glycan array binding signal (z-score),[16],-0.68
same,glycan array binding signal (z-score),[17],-0.876
same,glycan array binding signal (z-score),Gal(b1-3)GalNAc(b1-3)Gal,-1.03
same,glycan array binding signal (z-score),[18],-1.08
same,glycan array binding signal (z-score),[19],0.294
same,glycan array binding signal (z-score),[20],-0.525
same,glycan array binding signal (z-score),Gal(b1-3)GlcNAc,-0.114
same,glycan array binding signal (z-score),[21],-0.704
same,glycan array binding signal (z-score),[22],0.266
same,glycan array binding signal (z-score),Gal(b1-3)GlcNAc(b1-2)Man,-0.427
same,glycan array binding signal (z-score),[23],1.16

# Reprinted at random: 3 entries already listed.
binder,measurement,setting,value
B1,glycan array binding signal (z-score),[18],-1.08
same,glycan array binding signal (z-score),[20],-0.525
same,glycan array binding signal (z-score),[3],-0.798
